From the supplement of paper PMC10849652
The other results are listed elsewhere or left out.

Protein sequences, listed by entry. Tags and fused reporters are not part of them. Lines headed by an entry give the natural chain unless they say otherwise; changes in a name come on top.
UniProt Q14469: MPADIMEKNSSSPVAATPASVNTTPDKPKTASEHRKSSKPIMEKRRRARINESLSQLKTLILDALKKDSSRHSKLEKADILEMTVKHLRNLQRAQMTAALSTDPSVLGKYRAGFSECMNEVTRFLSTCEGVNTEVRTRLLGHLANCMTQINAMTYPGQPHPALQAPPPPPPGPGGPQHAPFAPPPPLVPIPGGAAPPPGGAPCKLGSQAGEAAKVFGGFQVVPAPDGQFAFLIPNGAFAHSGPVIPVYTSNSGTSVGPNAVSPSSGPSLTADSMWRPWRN
UniProt P54198, whole entry, looked up: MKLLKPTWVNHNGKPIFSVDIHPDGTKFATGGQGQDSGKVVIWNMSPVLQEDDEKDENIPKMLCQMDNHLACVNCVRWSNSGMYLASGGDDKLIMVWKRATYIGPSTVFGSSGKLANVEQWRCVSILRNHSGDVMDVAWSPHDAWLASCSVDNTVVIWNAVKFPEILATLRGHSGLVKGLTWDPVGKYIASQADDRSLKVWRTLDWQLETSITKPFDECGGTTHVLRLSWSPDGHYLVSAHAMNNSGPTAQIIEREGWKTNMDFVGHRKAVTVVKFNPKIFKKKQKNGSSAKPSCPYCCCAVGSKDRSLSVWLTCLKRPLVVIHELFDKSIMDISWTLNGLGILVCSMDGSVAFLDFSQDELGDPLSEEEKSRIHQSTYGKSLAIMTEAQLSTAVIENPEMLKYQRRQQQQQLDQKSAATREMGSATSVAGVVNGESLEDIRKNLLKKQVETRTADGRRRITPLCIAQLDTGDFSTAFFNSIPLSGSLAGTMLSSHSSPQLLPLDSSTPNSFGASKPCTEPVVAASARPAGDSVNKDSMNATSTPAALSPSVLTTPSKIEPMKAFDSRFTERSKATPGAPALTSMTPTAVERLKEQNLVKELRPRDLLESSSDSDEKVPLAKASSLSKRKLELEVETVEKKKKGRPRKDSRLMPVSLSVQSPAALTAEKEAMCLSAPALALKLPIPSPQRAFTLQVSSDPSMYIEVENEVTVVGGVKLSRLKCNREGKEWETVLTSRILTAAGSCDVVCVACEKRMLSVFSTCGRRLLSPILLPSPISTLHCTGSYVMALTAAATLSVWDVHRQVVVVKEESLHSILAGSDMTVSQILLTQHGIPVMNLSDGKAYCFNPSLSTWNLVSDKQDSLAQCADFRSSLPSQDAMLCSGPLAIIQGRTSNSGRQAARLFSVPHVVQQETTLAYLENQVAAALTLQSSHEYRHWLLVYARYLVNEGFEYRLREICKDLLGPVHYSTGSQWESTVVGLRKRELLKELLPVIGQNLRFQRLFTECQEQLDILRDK
UniProt Q9Y241: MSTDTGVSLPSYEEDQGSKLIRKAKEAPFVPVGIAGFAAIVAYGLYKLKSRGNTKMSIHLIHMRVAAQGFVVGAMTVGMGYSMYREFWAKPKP
UniProt P17096: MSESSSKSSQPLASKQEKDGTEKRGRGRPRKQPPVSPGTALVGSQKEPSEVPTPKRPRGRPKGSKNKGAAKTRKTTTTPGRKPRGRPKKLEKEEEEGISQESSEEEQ
UniProt Q9NRZ9: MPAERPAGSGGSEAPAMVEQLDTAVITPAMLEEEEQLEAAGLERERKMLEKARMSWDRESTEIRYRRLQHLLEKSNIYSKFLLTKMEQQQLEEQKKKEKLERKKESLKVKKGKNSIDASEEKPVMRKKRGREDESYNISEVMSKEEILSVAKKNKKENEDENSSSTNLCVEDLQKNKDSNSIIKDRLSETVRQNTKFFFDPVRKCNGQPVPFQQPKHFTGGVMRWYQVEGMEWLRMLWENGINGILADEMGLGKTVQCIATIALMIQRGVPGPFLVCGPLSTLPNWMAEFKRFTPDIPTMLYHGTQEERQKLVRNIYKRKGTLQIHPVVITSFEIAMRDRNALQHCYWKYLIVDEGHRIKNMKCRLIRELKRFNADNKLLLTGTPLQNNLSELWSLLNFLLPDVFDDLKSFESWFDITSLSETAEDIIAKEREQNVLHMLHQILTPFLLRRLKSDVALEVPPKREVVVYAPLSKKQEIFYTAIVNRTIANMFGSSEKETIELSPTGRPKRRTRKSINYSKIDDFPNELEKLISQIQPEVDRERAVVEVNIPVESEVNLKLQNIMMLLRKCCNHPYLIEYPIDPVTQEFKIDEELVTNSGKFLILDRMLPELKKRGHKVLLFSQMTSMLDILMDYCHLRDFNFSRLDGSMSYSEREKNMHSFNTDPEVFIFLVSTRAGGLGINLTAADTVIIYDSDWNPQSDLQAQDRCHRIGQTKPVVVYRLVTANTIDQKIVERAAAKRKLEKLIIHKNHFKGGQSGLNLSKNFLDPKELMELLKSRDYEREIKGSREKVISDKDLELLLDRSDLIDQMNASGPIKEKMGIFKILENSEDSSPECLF
UniProt P00738: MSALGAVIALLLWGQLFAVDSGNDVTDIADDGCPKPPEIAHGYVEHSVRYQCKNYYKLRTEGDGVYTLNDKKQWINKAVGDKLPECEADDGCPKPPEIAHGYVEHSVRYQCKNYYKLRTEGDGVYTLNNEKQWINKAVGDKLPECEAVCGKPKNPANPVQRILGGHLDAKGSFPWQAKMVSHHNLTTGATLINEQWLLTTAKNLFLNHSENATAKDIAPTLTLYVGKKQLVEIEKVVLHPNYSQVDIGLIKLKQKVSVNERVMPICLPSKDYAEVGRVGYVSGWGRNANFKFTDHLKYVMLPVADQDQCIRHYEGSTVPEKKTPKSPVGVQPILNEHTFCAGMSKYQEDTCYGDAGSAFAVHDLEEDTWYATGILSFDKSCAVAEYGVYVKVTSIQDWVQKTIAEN
UniProt P14210, whole entry, looked up: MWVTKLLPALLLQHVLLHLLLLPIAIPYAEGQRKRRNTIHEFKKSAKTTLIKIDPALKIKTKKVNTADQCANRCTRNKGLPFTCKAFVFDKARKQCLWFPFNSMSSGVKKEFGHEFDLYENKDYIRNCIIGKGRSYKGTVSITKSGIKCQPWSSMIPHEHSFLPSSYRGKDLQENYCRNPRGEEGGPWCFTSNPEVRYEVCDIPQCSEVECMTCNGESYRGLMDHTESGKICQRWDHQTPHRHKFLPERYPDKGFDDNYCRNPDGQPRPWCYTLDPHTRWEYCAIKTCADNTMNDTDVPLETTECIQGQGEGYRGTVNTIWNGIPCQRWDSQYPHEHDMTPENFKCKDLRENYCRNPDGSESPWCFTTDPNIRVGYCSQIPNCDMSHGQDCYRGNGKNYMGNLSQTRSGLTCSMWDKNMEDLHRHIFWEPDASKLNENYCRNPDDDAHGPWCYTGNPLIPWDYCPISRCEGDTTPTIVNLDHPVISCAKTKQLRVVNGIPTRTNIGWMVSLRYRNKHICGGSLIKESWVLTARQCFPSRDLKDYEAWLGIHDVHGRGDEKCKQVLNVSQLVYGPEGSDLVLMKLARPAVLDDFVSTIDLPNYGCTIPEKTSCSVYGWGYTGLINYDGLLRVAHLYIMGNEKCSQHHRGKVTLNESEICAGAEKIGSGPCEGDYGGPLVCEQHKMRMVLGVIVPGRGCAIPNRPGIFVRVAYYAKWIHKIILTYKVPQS
UniProt Q03933: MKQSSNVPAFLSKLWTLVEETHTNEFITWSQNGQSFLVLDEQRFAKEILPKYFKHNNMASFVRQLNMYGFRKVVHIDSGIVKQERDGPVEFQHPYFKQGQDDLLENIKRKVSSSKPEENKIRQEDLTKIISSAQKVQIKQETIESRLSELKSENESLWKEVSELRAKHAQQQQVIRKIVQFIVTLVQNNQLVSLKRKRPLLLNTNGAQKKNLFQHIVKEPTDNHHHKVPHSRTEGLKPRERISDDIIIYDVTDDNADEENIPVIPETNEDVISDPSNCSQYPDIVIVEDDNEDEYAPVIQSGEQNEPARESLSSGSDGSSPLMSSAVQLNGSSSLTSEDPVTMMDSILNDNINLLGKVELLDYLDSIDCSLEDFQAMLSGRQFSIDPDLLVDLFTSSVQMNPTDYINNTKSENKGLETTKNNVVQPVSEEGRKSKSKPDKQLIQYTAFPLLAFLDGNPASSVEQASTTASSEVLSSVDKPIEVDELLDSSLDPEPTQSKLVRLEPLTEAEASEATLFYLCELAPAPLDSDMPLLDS
UniProt Q96MH2: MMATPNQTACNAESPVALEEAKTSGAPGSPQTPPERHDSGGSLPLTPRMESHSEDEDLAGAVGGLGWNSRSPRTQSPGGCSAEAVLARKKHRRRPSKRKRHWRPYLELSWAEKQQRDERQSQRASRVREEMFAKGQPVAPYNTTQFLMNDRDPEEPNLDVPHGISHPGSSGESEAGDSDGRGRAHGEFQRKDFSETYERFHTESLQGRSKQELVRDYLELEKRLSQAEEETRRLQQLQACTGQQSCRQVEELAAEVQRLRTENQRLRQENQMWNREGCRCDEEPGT
UniProt Q15034: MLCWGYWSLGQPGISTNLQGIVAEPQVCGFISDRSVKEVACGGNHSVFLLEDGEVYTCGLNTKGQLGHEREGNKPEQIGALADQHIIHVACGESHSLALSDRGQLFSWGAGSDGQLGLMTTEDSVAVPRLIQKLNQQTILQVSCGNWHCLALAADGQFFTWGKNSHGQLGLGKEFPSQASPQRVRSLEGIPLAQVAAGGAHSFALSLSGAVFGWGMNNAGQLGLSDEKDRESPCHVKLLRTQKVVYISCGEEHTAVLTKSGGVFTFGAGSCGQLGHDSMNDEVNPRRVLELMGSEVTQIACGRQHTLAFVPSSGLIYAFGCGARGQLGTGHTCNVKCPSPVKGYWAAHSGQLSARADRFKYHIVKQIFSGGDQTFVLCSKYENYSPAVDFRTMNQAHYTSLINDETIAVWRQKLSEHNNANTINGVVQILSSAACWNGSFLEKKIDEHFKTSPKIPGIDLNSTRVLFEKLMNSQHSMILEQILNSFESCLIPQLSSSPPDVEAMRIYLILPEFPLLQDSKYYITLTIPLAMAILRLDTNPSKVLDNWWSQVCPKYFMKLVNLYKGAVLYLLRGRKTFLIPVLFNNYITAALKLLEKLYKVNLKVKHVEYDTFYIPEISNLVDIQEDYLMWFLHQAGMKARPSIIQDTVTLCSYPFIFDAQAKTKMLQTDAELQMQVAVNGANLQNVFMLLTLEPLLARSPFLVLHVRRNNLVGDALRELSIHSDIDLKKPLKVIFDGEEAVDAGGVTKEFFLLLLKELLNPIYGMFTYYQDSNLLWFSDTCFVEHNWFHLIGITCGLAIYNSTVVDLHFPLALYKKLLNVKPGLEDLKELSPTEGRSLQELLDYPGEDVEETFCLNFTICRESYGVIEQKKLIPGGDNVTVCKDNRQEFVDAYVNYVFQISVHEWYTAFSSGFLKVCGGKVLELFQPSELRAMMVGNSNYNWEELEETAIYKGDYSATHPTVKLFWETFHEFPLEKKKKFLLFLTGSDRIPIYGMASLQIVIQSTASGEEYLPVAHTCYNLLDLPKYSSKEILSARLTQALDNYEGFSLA
UniProt Q969F9: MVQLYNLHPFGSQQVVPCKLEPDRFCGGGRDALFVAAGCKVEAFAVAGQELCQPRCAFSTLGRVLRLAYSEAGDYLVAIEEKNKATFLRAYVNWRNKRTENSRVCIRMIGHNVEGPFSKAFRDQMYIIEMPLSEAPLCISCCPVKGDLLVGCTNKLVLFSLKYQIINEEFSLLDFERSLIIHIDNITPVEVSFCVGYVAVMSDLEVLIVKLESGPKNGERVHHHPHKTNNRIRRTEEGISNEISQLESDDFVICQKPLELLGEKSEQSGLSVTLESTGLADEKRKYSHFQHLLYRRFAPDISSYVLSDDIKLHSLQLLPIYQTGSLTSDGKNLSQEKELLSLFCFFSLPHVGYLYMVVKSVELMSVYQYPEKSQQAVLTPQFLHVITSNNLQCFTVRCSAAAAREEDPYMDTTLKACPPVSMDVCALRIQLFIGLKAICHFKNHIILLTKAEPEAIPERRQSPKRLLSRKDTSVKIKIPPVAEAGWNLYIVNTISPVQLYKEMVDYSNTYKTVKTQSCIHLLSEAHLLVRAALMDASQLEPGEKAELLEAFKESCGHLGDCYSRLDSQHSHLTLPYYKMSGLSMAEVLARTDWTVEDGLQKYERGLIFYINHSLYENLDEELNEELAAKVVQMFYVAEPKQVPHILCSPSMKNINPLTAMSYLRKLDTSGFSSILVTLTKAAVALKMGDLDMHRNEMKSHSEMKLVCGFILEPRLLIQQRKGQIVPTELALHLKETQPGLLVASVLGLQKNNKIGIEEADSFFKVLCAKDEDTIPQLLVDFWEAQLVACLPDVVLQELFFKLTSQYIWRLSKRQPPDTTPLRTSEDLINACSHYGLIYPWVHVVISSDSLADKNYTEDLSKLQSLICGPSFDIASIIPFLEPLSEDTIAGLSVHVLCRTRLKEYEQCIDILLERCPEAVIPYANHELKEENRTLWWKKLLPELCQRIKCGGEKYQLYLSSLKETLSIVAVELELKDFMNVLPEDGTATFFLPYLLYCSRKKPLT
UniProt Q9BW72: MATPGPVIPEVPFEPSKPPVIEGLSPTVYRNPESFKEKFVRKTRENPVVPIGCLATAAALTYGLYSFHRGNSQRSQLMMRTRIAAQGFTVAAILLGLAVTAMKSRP

The targets below were run with CC(=O)c1cnc2ccc(-c3cc(Cl)c(O)c(Cl)c3)nc2c1N[C@H]1CC[C@H](CN(C)C)CC1 (assay: log2 fold change, soluble protein after heating vs DMSO (PISA); higher = thermal stabilisation; K562 lysate, 10 uM; active = over 0.2 and 3.5 SD of the protein, either way, in both replicates (recomputed)).
Procedure, shortened: (§1)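 A 30 min treatment with 10 μM compound was applied to crude K562 extract at 1 mg/mL protein in PBS pH 7.4 with 1 mM MgCl2. Heating for 3 min spanned 48°C-58°C, after which aliquots were pooled, adjusted to 0.5% NP-40 at 4°C and spun at 21,000xg for 90 min. TMTpro 16plex LC-MS/MS of the supernatant, with channel sums equalised, gave values recorded as log-two fold change in thermal stability against solvent controls, from duplicates.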

Target | log2 fold change
HES1 (UniProt Q14469) | inactive: -0.031
HIRA (UniProt P54198) | inactive: 0.036
HRAS (UniProt P01112) | inactive: -0.018
HIGD1A isoform 2 (UniProt Q9Y241) | inactive: -0.121
HMGA1 isoform 2 (UniProt P17096) | inactive: 0.053

These targets were tested with CC(C)(C)Cn1c(N)nc2ccc(-c3[nH]c(C(C)(C)C)nc3-c3ccc(F)cc3)nc21 [ralimetinib] in the same assay as above.
Procedure, shortened: as §1

Target | log2 fold change
HECW2 (UniProt Q9P2P5) | inactive: 0.106
HELLS (UniProt Q9NRZ9) | inactive: 0.058
HES1 (UniProt Q14469) | inactive: 0.104
HIRA (UniProt P54198) | inactive: -0.036
HRAS (UniProt P01112) | inactive: -0.025
HIGD1A isoform 2 (UniProt Q9Y241) | inactive: 0.136
HP (UniProt P00738) | inactive: -0.21
HGF (UniProt P14210) | inactive: 0.097
HSF2 (UniProt Q03933) | inactive: 0.012
HMGA1 isoform 2 (UniProt P17096) | inactive: -0.122
HEXIM2 (UniProt Q96MH2) | inactive: -0.294
HERC3 (UniProt Q15034) | inactive: 0.032
HPS3 (UniProt Q969F9) | inactive: -0.096

What follows are targets tested with CC(C)(O)CC(=O)NCCn1ccc2ncnc(Nc3ccc(Oc4cccc(C(F)(F)F)c4)c(Cl)c3)c21 in the same assay as above.
Procedure, shortened: as §1

Target | log2 fold change
HECW2 (UniProt Q9P2P5) | inactive: -0.148
HELLS (UniProt Q9NRZ9) | inactive: 0.004
HES1 (UniProt Q14469) | inactive: 0.031
HIRA (UniProt P54198) | inactive: 0.039
HRAS (UniProt P01112) | inactive: 0.07
HIGD1A isoform 2 (UniProt Q9Y241) | inactive: -0.026
HP (UniProt P00738) | inactive: 0.62
HGF (UniProt P14210) | inactive: -0.081
HSF2 (UniProt Q03933) | inactive: 0.023
HMGA1 isoform 2 (UniProt P17096) | inactive: 0.088
HEXIM2 (UniProt Q96MH2) | inactive: -0.192
HERC3 (UniProt Q15034) | inactive: -0.062
HPS3 (UniProt Q969F9) | inactive: -0.032

What follows are targets tested with CC(C)C1=C2N=C(C=C(N2N=C1)NCC3=CC=CC=C3)NCCCCCCN in the same assay as above.
Procedure, shortened: as §1

Target | log2 fold change
HECW2 (UniProt Q9P2P5) | inactive: -0.036
HELLS (UniProt Q9NRZ9) | inactive: 0.045
HES1 (UniProt Q14469) | inactive: 0.022
HIRA (UniProt P54198) | inactive: 0.06
HRAS (UniProt P01112) | inactive: 0
HIGD1A isoform 2 (UniProt Q9Y241) | inactive: 0.039
HGF (UniProt P14210) | inactive: -0.001
HP1BP3 isoform 5 (UniProt Q5SSJ5) | inactive: -0.019
HMGXB4 (UniProt Q9UGU5) | inactive: 0.012
HS6ST1 (UniProt O60243) | inactive: 0.094
HELZ2 (UniProt Q9BYK8) | inactive: -0.143
HMGA1 isoform 2 (UniProt P17096) | inactive: -0.029
HOOK1 (UniProt Q9UJC3) | inactive: -0.027
HEXIM2 (UniProt Q96MH2) | inactive: 0.057
HMX3 (UniProt A6NHT5) | inactive: -0.013
HLA-E (UniProt P13747) | inactive: -0.003
HPS3 (UniProt Q969F9) | inactive: -0.043

These targets were tested with CC1=C(C(CC(=O)N1)C2=CC=C(C=C2)C(F)(F)F)C(=O)NC3=C(C=C4C(=C3)C=NN4)F in the same assay as above.
Procedure, shortened: as §1

Target | log2 fold change
HECW2 (UniProt Q9P2P5) | inactive: 0.019
HELLS (UniProt Q9NRZ9) | inactive: 0.023
HINFP (UniProt Q9BQA5) | inactive: -0.629
HES1 (UniProt Q14469) | inactive: -0.013
HIRA (UniProt P54198) | inactive: 0.18
HRAS (UniProt P01112) | inactive: -0.016
HNRNPD (UniProt D6RF44) | inactive: 0.111
HGFAC (UniProt Q04756) | inactive: 0.006
HPS6 (UniProt Q86YV9) | inactive: 0.004
HERPUD1 (UniProt Q15011) | inactive: 0
HSD3B7 (UniProt Q9H2F3) | inactive: -0.047
HELZ2 (UniProt Q9BYK8) | inactive: -0.033
HMGA1 isoform 2 (UniProt P17096) | inactive: 0.047
HIGD2A (UniProt Q9BW72) | inactive: 0.006
HPS3 (UniProt Q969F9) | inactive: 0.016

What follows are targets tested with CC1=C(C2=C(C=C1)C(=O)C3=CC=CC=C3N2CCCN)C in the same assay as above.
Procedure, shortened: as §1

Target | log2 fold change
HECW2 (UniProt Q9P2P5) | inactive: -0.091
HELLS (UniProt Q9NRZ9) | inactive: -0.056
HES1 (UniProt Q14469) | inactive: -0.116
HIRA (UniProt P54198) | inactive: -0.004
HRAS (UniProt P01112) | inactive: -0.063
HIGD1A isoform 2 (UniProt Q9Y241) | inactive: -0.045
HP (UniProt P00738) | inactive: -0.001
HPGD (UniProt P15428) | inactive: 0.052
HSF2 (UniProt Q03933) | inactive: -0.024
HNRNPU isoform 2 (UniProt Q00839) | inactive: 0.004
HPS6 (UniProt Q86YV9) | inactive: -0.374
HNRNPC isoform 2 (UniProt P07910) | inactive: -0.106
HMGA1 isoform 2 (UniProt P17096) | inactive: -0.229
HOOK1 (UniProt Q9UJC3) | inactive: -0.007
HEXIM2 (UniProt Q96MH2) | inactive: -0.059
HNRNPM (UniProt M0QZM1) | inactive: 0.121
HERC3 (UniProt Q15034) | inactive: 0.279
HIGD2A (UniProt Q9BW72) | inactive: -0.069
HPS3 (UniProt Q969F9) | inactive: -0.071
